This assay addresses Flag-tagged RPAP2 (RNA Pol II-associated protein 2) (human) (UniProt Q8IXW5). Put plainly: affinity purification with mass spectrometry; small (SC) and large (LC) complexes of the F-RPAP2 Flag eluate, separated on a glycerol gradient, analysed by mass spectrometry.

Chains of the proteins cited; added tags and fusions are not shown.
UniProt Q8IXW5: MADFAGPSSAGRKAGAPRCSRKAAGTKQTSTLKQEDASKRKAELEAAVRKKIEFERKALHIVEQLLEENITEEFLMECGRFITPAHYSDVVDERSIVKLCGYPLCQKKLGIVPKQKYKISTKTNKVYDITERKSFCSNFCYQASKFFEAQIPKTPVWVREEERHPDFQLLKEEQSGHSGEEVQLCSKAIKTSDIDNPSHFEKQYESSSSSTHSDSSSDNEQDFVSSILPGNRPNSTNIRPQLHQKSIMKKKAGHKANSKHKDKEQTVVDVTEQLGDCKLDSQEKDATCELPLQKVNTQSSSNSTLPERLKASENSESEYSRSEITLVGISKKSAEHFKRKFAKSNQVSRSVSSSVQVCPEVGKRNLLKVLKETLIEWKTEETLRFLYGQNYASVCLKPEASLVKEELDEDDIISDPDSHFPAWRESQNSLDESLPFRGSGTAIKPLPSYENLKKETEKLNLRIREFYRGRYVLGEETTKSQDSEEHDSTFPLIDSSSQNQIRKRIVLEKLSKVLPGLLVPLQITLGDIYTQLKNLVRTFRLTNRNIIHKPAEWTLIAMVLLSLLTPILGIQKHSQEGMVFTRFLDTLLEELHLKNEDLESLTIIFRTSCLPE
UniProt Q9UL03: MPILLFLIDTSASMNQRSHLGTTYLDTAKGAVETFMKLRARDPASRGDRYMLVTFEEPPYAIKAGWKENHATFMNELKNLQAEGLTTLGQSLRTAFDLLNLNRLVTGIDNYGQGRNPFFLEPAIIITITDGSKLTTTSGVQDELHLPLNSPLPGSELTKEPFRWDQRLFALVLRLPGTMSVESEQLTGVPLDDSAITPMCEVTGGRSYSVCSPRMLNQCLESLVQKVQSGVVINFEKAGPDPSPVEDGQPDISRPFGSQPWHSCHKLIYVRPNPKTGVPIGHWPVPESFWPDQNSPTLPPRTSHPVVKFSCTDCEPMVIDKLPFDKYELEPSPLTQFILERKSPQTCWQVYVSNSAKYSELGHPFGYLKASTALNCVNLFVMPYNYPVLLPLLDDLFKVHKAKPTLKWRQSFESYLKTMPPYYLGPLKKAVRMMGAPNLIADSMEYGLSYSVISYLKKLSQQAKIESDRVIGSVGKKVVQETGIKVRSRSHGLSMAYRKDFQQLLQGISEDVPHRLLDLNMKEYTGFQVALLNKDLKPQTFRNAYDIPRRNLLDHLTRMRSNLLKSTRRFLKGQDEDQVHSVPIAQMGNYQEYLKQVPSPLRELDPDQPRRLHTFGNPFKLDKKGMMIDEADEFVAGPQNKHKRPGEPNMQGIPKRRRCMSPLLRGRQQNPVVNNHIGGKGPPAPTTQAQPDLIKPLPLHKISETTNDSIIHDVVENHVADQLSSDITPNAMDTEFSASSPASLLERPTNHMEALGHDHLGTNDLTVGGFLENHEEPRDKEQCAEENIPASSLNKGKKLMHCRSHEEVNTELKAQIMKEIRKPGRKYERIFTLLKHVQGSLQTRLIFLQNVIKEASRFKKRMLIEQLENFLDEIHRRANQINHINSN

These are yes or no findings as the source states them, for the method shown. Binding seen in cells or lysates may run through a third protein. A yes stands for co-enrichment or nearness to the bait. Other partners may have been found.

As for “Int6 subunit of the Integrator complex (from UniProt Q9UL03 1-887)”, the binding entry is recorded as “binds”.
